PubChem BioAssay AID493014 (National Center for Advancing Translational Sciences (NCATS), 2011)
This is one part of the list. Further columns of the screen follow, without active or inactive calls. Compounds called inactive in the main read-out are mostly missing here. The note in brackets gives the kind of curve behind each potency; many fits are weak.

Experiment: qHTS Assay to Find Inhibitors of Chronic Active B-Cell Receptor Signaling
Details: ABC-DLBCL IkBa-CBG/CBR reporter, luminescence ratio (green luciferase fused to IkBa over red control in TMD8 lymphoma cells), 4 h
In short: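 Doxycycline induced both beetle luciferases in TMD8 lymphoma cells; IKK-driven degradation limits the IkappaBalpha-fused green signal, while red luminescence normalises for cell number and nonspecific effects. Compounds tested up to 46 uM, 4 hrs.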

[1] = measured here: CBR red luminescence, cell number
[2] = measured here: IkBa-CBG green luminescence

SMILES	AC50 [1]	AC50 [2]
O=C(Nc1ccccc1)c1cn2ccccc2n1	0.447 µM [falling, full curve]	
C=CCSc1n[nH]c(-c2ccccc2)n1	0.184 µM [rising, full curve, poor fit]	
O=C(c1cc2c(s1)-c1ccccc1OC2)N1CCc2ccccc2C1	23.1 µM [falling, single point]	
CN1C(C(=O)NCC2CC2)CC2Cn3c(nc4cc(Cl)c(Cl)cc43)C21 (stereo not drawn)	35.5 µM [falling, single point]	20 µM [rising, partial curve, poor fit]
O=C(Cn1nnc(-c2ccccc2)n1)N1CCN(c2ccc(F)cc2)CC1	0.562 µM [rising, full curve, poor fit]	
Cc1ccccc1C(=O)Nc1nc(SCc2ccc(Cl)cc2)n[nH]1	0.631 µM [rising, full curve, poor fit]	
O=C(NC1CC1)c1ccc2c(c1)ncn2C1CCCC1	11.2 µM [falling, partial curve]	
O=C(CN1CCN(c2ccc(F)cc2)CC1)Nc1cccnc1Cl	10 µM [falling, partial curve]	
O=C(Nc1nccs1)c1ccc(COc2ccccc2Cl)o1	35.5 µM [falling, single point]	
Cc1csc(NC(=O)c2ccc(C(=O)Nc3nc(C)cs3)cc2)n1	1.26 µM [falling, full curve]	0.794 µM [rising, full curve, poor fit]
CCOc1cc(/C=N/NC(N)=O)ccc1OCC(=O)Nc1ccc(C)c(C)c1	0.251 µM [rising, full curve, poor fit]	
O=C(CC(Nc1ccc(F)cc1)C(=O)O)c1ccccc1 (stereo not drawn)	16.4 µM [falling, single point]	
CCc1cccc(NC(=O)C2CCCN2S(=O)(=O)c2ccc3c(c2)n(C)c(=O)c(=O)n3C)c1 (stereo not drawn)	35.5 µM [rising, single point]	
Cc1ccccc1N(CC(=O)NC(C)(C)C)C(=O)CCC(=O)Nc1nccs1	11.2 µM [falling, partial curve, poor fit]	
COc1ccc(S(=O)(=O)NC2CC(C)(C)NC(C)(C)C2)c(C)c1C	8.2 µM [rising, partial curve, poor fit]	
CCOC(=O)C1CCCN(C(=O)CN2C(=O)c3ccccc3S2(=O)=O)C1 (stereo not drawn)	20.6 µM [rising, single point]	
CCc1nc(C)c(C(=O)N2CCCC(C(=O)Nc3cccc(-c4cccc(C)c4)c3)C2)o1 (stereo not drawn)	22.4 µM [falling, single point]	
C(=C\c1nc2ccccc2[nH]1)/c1ccccc1	5.01 µM [falling, full curve, poor fit]	
COc1ccc(C2NC(=S)N(c3ccccc3)C(C)=C2C(=O)Nc2ccccc2)cc1 (stereo not drawn)	5.8 µM [falling, full curve, poor fit]	
CCc1nnc(NS(=O)(=O)c2ccc(N=Cc3c(C)[nH]n(-c4cccc(Cl)c4)c3=O)cc2)s1	0.206 µM [rising, full curve, poor fit]	20.6 µM [rising, single point]
CCn1c2ccccc2c2nnc(SCC(=O)NCc3cccs3)nc21	35.5 µM [rising, partial curve, poor fit]	
N#CC1(C#N)C(c2ccccc2)OC23CCCCC2C1(C#N)C(=N)O3 (stereo not drawn)	32.6 µM [falling, single point]	

SMILES	AC50 [1]	AC50 [2]
FC(F)Oc1ccc(/C=N/N2CCCCC2)c(OC(F)F)c1	10 µM [rising, partial curve]	
O=C(NCCc1ccc(Cl)cc1)c1ccc2nccnc2c1	6.31 µM [falling, partial curve]	
CNC(=O)c1c(NC(=O)c2ccco2)sc2c1CCCC2	0.282 µM [rising, full curve, poor fit]	
Cc1ccccc1-n1nc(C)c(N=O)c1N	1.41 µM [rising, full curve, poor fit]	
CCOC(=O)c1ccc(N/C=C2/CCCC(C)C2=O)cc1 (stereo not drawn)	0.326 µM [falling, full curve]	
CC(=C\c1ccccc1)/C=C1/SC(=S)N(CCCC(=O)O)C1=O	0.398 µM [falling, full curve]	
CC(C)(C)c1ccc(OCC(=O)Nc2ccc(C(=O)Nc3ccccc3C(=O)O)cc2)cc1	20 µM [falling, partial curve, poor fit]	
CC(=O)/C=C(\C)Nc1ccccc1O	35.5 µM [falling, single point]	
C/C(=N/NC(=O)c1ccc2c(c1)OCO2)c1ccc(NC(=O)C(F)(F)F)cc1	7.31 µM [falling, partial curve]	
CC(OC(=O)CNC(=O)C12CC3CC(CC(C3)C1)C2)C(=O)Nc1ccc(N2CCOCC2)cc1 (stereo not drawn)	10.3 µM [rising, single point]	
COc1ccc2c(c1)c(C(C)=O)c(C)n2CCc1ccc(OC)c(OC)c1	5.62 µM [rising, single point]	
O=C(CCC1CCCN(C(=O)CC2=CCCCC2)C1)N1CCN(c2ccccn2)CC1 (stereo not drawn)	6.31 µM [rising, partial curve, poor fit]	
CCOC(=O)c1ccc(Nc2nc(N)c3cc(OC)c(OC)cc3n2)cc1	12.6 µM [falling, single point]	
O=C(CSc1ccc(F)cc1)Nc1nnc(-c2ccco2)o1	16.4 µM [falling, single point]	
O=C(Cn1cccc1)N1CCN(C(c2ccccc2)c2ccccc2)CC1	11.6 µM [rising, partial curve]	
Cc1ccsc1/C=N/NC(=O)c1nnn(-c2nonc2N)c1-c1ccc2c(c1)OCO2	10 µM [falling, partial curve]	
Oc1ccc(O)c2c1C1c3ccccc3C2c2ccccc21	35.5 µM [rising, single point]	
COc1ccc(Nc2cc(C(=O)NCCCN(C)c3ccccc3)c3ccccc3n2)c(OC)c1	35.5 µM [falling, single point]	
N#C/C(=C/c1ccc(N2CCCCC2)o1)C(=O)Nc1ccc(Cl)cc1	6.51 µM [falling, full curve, poor fit]	
CC1CCCC(NC(=O)Cn2cc(C(F)(F)F)cc(Cl)c2=O)C1C (stereo not drawn)	0.164 µM [falling, full curve, poor fit]	
Cc1cccc(NC(=O)c2cc(S(=O)(=O)N3CCCCC3)ccc2Cl)n1	11.6 µM [rising, partial curve, poor fit]	
O=C(CNc1ccc2c(c1)OCO2)N/N=C\c1cn(Cc2ccc(F)cc2)c2ccccc12	6.51 µM [falling, full curve]	

Random excerpt: 2 records from the list
SMILES	AC50 [1]	AC50 [2]
O=C(CNc1ccc2c(c1)OCO2)N/N=C\c1cn(Cc2ccc(F)cc2)c2ccccc12	6.51 µM [falling, full curve]	
CC1CCCC(NC(=O)Cn2cc(C(F)(F)F)cc(Cl)c2=O)C1C (stereo not drawn)	0.164 µM [falling, full curve, poor fit]	

(further entries)

SMILES	AC50 [1]	AC50 [2]
COc1ccc([N+](=O)[O-])cc1NCc1ccco1	10 µM [rising, partial curve, poor fit]	
Cc1ccc(CS(=O)(=O)c2ccc(C(=O)N3CCCCC3)cc2[N+](=O)[O-])cc1	10 µM [falling, partial curve, poor fit]	
O=C(c1ccc(-c2ccc([N+](=O)[O-])cc2)o1)N1CCCCC1	1.46 µM [rising, full curve, poor fit]	
CCOCCCNC(=O)c1cc(Sc2nnc(C)s2)nc2ccccc12	35.5 µM [rising, single point]	
Cn1cc(SCC(=O)NCCc2ccccc2)c2ccccc21	1.41 µM [rising, partial curve]	
CC1(C)Cc2c(c(-c3ccccc3)[nH]c(=O)c2C#N)CS1	0.411 µM [falling, partial curve, poor fit]	
CCc1c(C#N)c(SCCC(=O)Nc2ccc(F)cc2)nc2c1C(=O)CC(C)(C)C2	32.6 µM [falling, single point]	
COc1ccc(CNC(=O)C(c2ccco2)N(C(=O)CNS(=O)(=O)c2ccccc2)c2ccccc2C)cc1 (stereo not drawn)	20.6 µM [falling, single point]	
COc1cc(C2NC(C(=O)O)CS2)ccc1OCc1ccccc1C#N (stereo not drawn)	18.4 µM [falling, single point]	
COc1ccc(C(=O)Nc2ccc(/C(C)=N/NC(=O)c3ccccc3O)cc2)cc1OC	10.3 µM [falling, partial curve]	32.6 µM [falling, partial curve, poor fit]
CC1CCN(Cc2nc(-c3ccc(Cl)cc3)no2)CC1	0.112 µM [rising, full curve, poor fit]	
O=c1[nH]n(-c2ccc([N+](=O)[O-])cc2)c(=O)c2ccccc12	35.5 µM [falling, single point]	
CC1CCC2(CC1)NC(=O)N(CC(=O)Nc1ccc(F)cc1)C2=O (stereo not drawn)	14.6 µM [falling, partial curve]	
c1ccc(Nc2ccccn2)nc1	1 µM [falling, full curve]	
Cc1ccc(/C=C2\Oc3cc(OCC(=O)NN)ccc3C2=O)o1	0.398 µM [rising, full curve, poor fit]	
CCOC(=O)c1ccc(Nc2ncnc3c2cnn3C)cc1	2 µM [rising, partial curve]	
COC(=O)Cc1[nH]nc2c1C(C1C=CCCC1)C(C#N)=C(N)O2 (stereo not drawn)	14.6 µM [falling, partial curve]	
COc1cccc(-c2cc(C(=O)Nc3ccccc3SC)no2)c1	0.1 µM [falling, full curve, poor fit]	
COc1ccc(C)c2sc(=NC(=O)c3ccc(C(C)=O)cc3)n(C)c12	2.24 µM [falling, full curve]	
Clc1nnc(N/N=C/c2ccccc2)c2ccccc12	13 µM [falling, partial curve]	
